Primary screen of a compound library

Amino acid sequences for entries named in this document (tags omitted). Residues count along the entry.
UniProt Q4DA54, 1-478: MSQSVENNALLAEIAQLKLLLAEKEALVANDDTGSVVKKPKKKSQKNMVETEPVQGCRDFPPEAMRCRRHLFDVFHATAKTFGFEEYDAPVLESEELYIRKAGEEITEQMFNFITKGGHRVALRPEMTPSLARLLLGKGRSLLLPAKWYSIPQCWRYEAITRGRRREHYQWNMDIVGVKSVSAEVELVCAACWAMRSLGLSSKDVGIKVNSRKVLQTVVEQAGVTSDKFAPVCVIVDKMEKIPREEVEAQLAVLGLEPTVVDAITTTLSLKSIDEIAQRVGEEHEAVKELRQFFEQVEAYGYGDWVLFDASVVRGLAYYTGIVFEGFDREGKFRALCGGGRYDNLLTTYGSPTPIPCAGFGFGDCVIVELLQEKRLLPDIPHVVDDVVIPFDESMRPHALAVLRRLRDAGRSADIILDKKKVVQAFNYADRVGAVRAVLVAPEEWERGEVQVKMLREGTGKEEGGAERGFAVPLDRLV
UniProt A4I591, 1-473: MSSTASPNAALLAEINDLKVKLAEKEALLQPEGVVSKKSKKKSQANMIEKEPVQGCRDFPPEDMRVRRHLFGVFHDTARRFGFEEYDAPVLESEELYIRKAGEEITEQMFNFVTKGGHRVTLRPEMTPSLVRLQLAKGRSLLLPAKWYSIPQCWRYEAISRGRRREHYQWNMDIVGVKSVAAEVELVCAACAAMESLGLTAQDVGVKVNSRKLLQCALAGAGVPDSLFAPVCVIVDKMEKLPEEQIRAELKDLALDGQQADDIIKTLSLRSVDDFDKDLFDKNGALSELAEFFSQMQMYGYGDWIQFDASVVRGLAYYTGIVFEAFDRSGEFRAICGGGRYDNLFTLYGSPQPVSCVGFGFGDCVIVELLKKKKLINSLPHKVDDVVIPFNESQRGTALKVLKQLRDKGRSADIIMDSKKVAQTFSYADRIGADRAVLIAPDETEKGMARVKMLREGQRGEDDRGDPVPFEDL
UniProt P9WPC5, whole entry: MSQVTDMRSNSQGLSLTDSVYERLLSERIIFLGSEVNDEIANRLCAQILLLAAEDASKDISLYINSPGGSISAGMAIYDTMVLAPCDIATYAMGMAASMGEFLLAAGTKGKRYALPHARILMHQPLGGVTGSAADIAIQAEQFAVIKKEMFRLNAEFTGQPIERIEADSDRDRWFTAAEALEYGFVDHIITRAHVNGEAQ
UniProt P9WPC3, whole entry partner: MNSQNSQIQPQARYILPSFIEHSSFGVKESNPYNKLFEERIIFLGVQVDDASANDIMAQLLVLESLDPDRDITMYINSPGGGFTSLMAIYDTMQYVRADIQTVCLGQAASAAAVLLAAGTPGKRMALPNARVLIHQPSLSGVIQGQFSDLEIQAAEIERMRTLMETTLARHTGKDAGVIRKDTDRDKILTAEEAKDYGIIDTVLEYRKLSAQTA

Data taken from ChEMBL document CHEMBL3988442, “University of Dundee, Small-Polar-MMV Screening Library” (2021).

Toxoplasma: 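Assay of Toxoplasma gondii numbers, read through their beta-galactosidase reporter with a colour substrate. Tested at 10 µM. Higher reads as fewer parasites (inferred from which compounds were picked for retests). About 67,000 compounds were tested under these conditions; 0.38% (about 260) showed 50% or more at least once.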
Leishmania in macrophages: 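Cell assay of Leishmania donovani living inside macrophages; the read-out is not stated. Tested at 30 µM. Direction is inferred from retests: higher values go with stronger inhibition. About 69,000 compounds were tested under these conditions; 1.5% (about 1,000) showed 50% or more at least once.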
TcHisRS: 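Enzyme assay of histidyl-tRNA synthetase; the read-out is not stated. Target: Histidine-tRNA ligase, Trypanosoma cruzi CL Brener (UniProt Q4DA54). Tested at 30 µM. Higher reads as stronger inhibition (inferred: compounds with an IC50 in retests scored well above the rest). Of about 69,000 compounds tested this way, about 31 (0.045%) reached 50% or more in at least one test.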
LiHisRS: 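Histidine-tRNA ligase, Leishmania infantum (UniProt A4I591). Enzyme assay of histidyl-tRNA synthetase; the read-out is not stated. Compounds at 30 µM. Direction is inferred from retests: higher values go with stronger inhibition. The assay is labelled LdHisRS but filed under L. infantum. Size under these conditions: about 69,000 compounds, about 410 of them at 50% or above in at least one test.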
ClpP1P2: 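Protease assay of ClpP1P2, read by the AMC dye that it sets free. Target: ClpP1P2, Mycobacterium tuberculosis (UniProt P9WPC5 and UniProt P9WPC3). Compounds at 50 µM. Higher reads as stronger inhibition, judged from the few compounds that gave an IC50. Most other retested compounds had strongly negative values. About 69,000 compounds were tested under these conditions; 0.015% (about 10) showed 50% or more at least once.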
T. brucei: 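Whole-parasite assay of Trypanosoma brucei over 72 hours; the read-out is not stated. Concentration: 30 µM. Higher reads as stronger inhibition (inferred: compounds with an IC50 in retests scored well above the rest). Values scatter widely below zero; nearly all retest evidence comes from the higher of the two concentrations used. Of about 64,000 compounds tested this way, about 940 (1.5%) reached 50% or more in at least one test.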

Results are given as percent effect. How 0% and 100% were set is not recorded. Most values in the screen are low, and negative values occur. This is an unselected part of the compounds tested. A dash means the value is not listed here; it may have been measured.

compound,Toxoplasma,Leishmania in macrophages,TcHisRS,LiHisRS,ClpP1P2,T. brucei
CCc1cc2c(N3CCCC(c4cc(C(N)=O)[nH]n4)C3)ncnc2s1 (stereo not shown),-11.74,3.106,4.255,18.57,-3.816,0.2852
Cc1cc(-c2ccc(=O)n(C3CCN(C(=O)C4CC4)CC3)n2)c(C)o1,-,9.145,13.85,16.9,9.777,-
COCC(=O)N1C[C@@H]2COC[C@]2(COC)C1,-,-,5.747,6,1.822,-
c1coc(CN2C[C@@H]3CCCO[C@@H]3[C@H](N3CCCC3)C2)c1,-,-,4.132,10.91,3.744,-
Cc1nccn1CCCN1CCCC(c2ccccc2)C1 (stereo not shown),25.81,72.11,9.045,22.35,-13.29,34.35
Cc1nc(CN2CCCC3(CCN(c4cccnc4)C3=O)C2)cs1.O=C(O)C(F)(F)F.O=C(O)C(F)(F)F (stereo not shown),-5.859,-8.219,-,-,-,-9.666
COCC1COCCC12CCN(C(=O)CCc1ccccc1C)CC2 (stereo not shown),17.83,9.332,1.22,0,6.912,-46.22
CCN(CC)C(CNC(=O)c1ccc(S(C)(=O)=O)cc1)c1ccco1 (stereo not shown),-7.827,29.19,3.743,19.23,10.41,8.23
Cc1cc(C)c(CNCC(O)c2ccc(F)c(F)c2)c(C)c1.Cl (stereo not shown),-6.913,15.37,-,-,-,-22.31
Cc1cc(C)c(S(=O)(=O)Nc2c(C)nc(N(C)C)nc2C)cc1C,-5.894,5.661,4.663,0,-7.284,7.019
Cc1cccc(CN2CCC(NCC3CNc4cc(C)nn4C3)CC2)c1 (stereo not shown),9.333,50.3,5.814,16.39,12.51,-12.56
Cc1oc(-c2cccs2)nc1C(=O)N1CCCC1Cn1cccn1 (stereo not shown),3.356,26.22,2.312,8.036,-19.96,-14.97
COc1cc(CNC(=O)Nc2nncs2)ccc1O,14.28,28.01,2.564,9.524,-5.834,-10.56
O=C(CNC(=O)C1CC1)NCc1ccc(Cl)s1,-8.776,10.38,4.865,21.92,4.563,-16.75
Cc1cc(C(=O)N2CCCC(C)C2)ccc1NCc1nc(C(C)C)no1 (stereo not shown),-0.2032,36.87,5.172,8.696,-5.469,-9.891
CNC(=O)[C@@H](c1ccccc1F)N1CCC[C@H]1C(=O)NC1CCOCC1,-,-,4.478,11.11,-11.53,-
CS(=O)(=O)c1ccc(NC(=O)NCCC2=CCCCC2)cc1,-10.41,16.41,6.878,20,14.28,3.245
COc1ccc(C(=O)N2CCN(CCO)CC2)c(F)c1,7.784,20.1,6.857,21.15,3.385,-
FC(F)(F)CCc1ccnc(N2CCN(CCc3ccncc3)CC2)n1,-2.844,-20.06,8.38,10.53,-15.44,-7.33
COc1ccc(CN2CCSCC2)c(OC)c1,13.67,-9.063,2.564,4.762,-2.384,-12.54
[H][C@@]12C[C@H](C(=O)NCc3ccco3)CN(C(=O)c3ccnnc3)[C@]1([H])CCO2,14.1,-7.768,-,-,-,-15.53
O=C(C1CC=CC1)N1CCC2(CC1)OCCO2,2.395,18.87,4.523,0,-0.3658,-20.19
CN1C[C@H]2CN(Cc3cccc(OC(F)(F)F)c3)CCN2C1=O,-,-,-4.478,21.62,-6.848,-
CN1CCOCC2(CCCN(C(=O)c3ccc(-n4cccc4)cc3)C2)C1 (stereo not shown),-,-,12.61,-11.93,19.36,-
O=C(NCC1CC1)C1CCC2(CCN(C(=O)c3ccncc3)CC2)O1 (stereo not shown),-,-,2.404,6.422,0.1844,-
NC(=O)c1ccc(CNCC2CCN(CCO)CC2)cc1,2.858,-0.3402,5.155,14.52,-2.935,-47.85
COCC(=O)NC(CC(C)C)c1nc2cccnc2n1C (stereo not shown),6.62,-49.28,-3.876,-1.418,-4.23,-38.9
CC1(C)CC(=O)c2cnc3nc(N4CCCCC4)nc(O)c3c2C1,-11.7,10.62,7.216,12.09,-20.01,3.823
Cc1cc(C2CCCN(Cc3nc(Cc4ccccc4)no3)C2)n[nH]1 (stereo not shown),8.285,-54.76,4.348,3.333,-1.137,-33.51
O=C(O)C(F)(F)F.O=C(O)C(F)(F)F.c1cncc(N2CCOCC3(CCCN(Cc4cccs4)C3)C2)c1 (stereo not shown),2.528,26.3,-,-,-,-
CCCc1noc(CCCC(=O)N2CCCC(n3ccnc3C)C2)n1 (stereo not shown),-7.571,23.28,0,2.778,-6.089,-20.22
O=C1CCCN1Cc1ncn2c1CN(Cc1cccs1)CCC2,-,-,4.926,-94.12,1.408,-
COCC(=O)N1CCCC1c1cccc(Nc2ncc(C)s2)n1 (stereo not shown),9.714,15.05,6.844,10.34,-3.995,85.92
CS(=O)(=O)CCCNC(=O)Nc1sc2ccccc2c1Cl,-15.27,-56.04,1.587,16.44,2.694,-207.3
Cc1cc(O)nc(C2CCCN(Cc3ccncc3)C2)n1 (stereo not shown),-4.805,-11.49,0.5405,22.22,11.88,-8.777
Cc1cc(CCC(N)=O)cc(C2CCCN2Cc2ccnn2C)n1 (stereo not shown),-2.821,13.7,5.243,12,-11.15,1.854